# Laboratory results: PMC8155215, “The splicing factor XAB2 interacts with ERCC1-XPF and XPG for R-loop processing”
# Protein sequences, listed by entry. Tags and fused reporters are not part of them.
# UniProt Q6PGF5: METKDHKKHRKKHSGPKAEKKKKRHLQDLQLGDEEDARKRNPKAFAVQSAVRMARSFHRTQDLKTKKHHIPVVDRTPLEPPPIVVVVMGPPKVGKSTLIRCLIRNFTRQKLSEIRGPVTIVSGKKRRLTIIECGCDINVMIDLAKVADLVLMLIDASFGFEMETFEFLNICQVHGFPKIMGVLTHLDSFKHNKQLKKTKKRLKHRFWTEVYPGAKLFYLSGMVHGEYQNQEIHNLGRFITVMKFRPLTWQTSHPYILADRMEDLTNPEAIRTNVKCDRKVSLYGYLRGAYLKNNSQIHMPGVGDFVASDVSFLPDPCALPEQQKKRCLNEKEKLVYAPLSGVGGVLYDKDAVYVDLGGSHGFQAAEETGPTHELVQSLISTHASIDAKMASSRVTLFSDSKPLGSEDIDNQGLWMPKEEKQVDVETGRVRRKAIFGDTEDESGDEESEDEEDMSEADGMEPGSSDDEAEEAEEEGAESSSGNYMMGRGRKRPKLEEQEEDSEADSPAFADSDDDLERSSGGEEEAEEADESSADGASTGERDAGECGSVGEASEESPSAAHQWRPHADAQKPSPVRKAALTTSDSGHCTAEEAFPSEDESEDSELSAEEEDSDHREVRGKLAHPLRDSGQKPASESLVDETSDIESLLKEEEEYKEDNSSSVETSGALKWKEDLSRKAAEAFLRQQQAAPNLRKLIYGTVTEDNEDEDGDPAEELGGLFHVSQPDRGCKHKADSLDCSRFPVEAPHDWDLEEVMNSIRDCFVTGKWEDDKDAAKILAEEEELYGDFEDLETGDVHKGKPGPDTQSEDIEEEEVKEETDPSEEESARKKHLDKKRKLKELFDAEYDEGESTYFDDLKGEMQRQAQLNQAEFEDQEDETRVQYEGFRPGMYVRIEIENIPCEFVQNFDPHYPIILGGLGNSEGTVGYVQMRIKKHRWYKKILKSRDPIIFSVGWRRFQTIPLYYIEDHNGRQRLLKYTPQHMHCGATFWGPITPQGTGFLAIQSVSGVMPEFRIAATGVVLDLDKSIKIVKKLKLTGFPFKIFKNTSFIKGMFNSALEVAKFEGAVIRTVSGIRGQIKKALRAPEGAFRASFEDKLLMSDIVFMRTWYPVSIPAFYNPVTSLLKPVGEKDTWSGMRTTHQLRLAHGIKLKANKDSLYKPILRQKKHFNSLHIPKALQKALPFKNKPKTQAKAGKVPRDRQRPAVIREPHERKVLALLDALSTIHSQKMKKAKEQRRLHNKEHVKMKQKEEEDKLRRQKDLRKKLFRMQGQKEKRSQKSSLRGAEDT
# UniProt Q9CW03: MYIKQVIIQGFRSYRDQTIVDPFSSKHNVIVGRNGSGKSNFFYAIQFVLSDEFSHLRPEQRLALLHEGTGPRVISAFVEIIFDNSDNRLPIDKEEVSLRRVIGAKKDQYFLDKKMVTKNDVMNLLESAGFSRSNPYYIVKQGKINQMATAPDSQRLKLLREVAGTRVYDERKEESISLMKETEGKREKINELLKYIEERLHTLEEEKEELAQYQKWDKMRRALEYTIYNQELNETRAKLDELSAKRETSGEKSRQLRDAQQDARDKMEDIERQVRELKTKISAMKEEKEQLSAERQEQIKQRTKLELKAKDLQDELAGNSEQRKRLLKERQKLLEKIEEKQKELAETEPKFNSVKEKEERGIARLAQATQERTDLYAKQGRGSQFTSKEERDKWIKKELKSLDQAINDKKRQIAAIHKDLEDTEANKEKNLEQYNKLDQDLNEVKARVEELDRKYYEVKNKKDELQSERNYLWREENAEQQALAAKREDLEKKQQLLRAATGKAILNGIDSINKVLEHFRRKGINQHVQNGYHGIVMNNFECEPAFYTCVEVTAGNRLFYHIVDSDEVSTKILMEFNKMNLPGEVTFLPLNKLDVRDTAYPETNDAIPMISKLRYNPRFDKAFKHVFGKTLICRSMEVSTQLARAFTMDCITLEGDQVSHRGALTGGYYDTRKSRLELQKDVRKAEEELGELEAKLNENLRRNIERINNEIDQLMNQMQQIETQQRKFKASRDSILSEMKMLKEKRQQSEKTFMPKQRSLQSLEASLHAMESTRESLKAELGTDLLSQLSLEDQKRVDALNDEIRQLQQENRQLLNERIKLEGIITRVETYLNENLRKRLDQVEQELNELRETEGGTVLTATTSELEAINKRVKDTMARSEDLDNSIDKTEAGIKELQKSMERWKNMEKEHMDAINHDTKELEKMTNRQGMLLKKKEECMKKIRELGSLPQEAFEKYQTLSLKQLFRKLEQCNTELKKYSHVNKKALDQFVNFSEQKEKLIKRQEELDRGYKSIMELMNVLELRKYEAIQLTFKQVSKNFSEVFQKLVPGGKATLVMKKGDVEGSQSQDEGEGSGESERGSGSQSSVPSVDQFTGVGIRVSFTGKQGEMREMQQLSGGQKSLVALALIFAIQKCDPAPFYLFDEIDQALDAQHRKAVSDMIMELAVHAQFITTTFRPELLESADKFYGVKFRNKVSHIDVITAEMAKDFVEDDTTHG
# UniProt Q8BZQ7: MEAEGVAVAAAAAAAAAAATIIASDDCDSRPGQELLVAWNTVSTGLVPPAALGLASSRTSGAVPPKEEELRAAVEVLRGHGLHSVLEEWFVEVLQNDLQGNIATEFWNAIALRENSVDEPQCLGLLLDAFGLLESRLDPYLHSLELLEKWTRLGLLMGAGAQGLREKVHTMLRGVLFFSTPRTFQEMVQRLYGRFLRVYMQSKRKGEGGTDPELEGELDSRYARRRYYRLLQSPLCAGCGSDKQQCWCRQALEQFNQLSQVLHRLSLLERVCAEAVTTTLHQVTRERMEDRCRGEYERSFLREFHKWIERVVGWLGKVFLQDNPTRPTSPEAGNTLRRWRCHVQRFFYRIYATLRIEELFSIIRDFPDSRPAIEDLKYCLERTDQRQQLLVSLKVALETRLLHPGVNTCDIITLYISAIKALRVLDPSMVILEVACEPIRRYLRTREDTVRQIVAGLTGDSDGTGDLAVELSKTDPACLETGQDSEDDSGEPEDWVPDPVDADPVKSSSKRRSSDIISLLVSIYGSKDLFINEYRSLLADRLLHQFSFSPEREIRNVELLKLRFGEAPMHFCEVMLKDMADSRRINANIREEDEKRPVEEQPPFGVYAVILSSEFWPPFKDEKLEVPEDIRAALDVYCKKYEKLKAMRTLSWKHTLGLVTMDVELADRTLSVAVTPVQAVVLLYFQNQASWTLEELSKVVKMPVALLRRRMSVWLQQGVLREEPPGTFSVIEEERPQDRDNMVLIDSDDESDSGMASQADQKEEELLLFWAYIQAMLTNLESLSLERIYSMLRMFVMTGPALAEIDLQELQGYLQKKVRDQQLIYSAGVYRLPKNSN
# UniProt Q9R1K5: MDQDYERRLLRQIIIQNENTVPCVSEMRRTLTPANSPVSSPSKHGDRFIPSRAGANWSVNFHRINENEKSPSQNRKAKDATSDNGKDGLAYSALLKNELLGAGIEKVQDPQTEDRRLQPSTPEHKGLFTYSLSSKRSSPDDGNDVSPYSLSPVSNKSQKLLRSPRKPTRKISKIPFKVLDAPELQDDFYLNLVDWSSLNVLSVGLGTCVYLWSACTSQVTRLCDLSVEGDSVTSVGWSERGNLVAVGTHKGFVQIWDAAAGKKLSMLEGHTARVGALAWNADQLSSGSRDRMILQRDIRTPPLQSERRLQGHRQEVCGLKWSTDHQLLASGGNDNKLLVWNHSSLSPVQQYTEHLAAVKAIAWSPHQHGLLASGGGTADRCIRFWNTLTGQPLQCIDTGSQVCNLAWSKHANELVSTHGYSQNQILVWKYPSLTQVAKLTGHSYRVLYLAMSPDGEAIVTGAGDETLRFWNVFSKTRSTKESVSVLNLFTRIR
# UniProt P53995: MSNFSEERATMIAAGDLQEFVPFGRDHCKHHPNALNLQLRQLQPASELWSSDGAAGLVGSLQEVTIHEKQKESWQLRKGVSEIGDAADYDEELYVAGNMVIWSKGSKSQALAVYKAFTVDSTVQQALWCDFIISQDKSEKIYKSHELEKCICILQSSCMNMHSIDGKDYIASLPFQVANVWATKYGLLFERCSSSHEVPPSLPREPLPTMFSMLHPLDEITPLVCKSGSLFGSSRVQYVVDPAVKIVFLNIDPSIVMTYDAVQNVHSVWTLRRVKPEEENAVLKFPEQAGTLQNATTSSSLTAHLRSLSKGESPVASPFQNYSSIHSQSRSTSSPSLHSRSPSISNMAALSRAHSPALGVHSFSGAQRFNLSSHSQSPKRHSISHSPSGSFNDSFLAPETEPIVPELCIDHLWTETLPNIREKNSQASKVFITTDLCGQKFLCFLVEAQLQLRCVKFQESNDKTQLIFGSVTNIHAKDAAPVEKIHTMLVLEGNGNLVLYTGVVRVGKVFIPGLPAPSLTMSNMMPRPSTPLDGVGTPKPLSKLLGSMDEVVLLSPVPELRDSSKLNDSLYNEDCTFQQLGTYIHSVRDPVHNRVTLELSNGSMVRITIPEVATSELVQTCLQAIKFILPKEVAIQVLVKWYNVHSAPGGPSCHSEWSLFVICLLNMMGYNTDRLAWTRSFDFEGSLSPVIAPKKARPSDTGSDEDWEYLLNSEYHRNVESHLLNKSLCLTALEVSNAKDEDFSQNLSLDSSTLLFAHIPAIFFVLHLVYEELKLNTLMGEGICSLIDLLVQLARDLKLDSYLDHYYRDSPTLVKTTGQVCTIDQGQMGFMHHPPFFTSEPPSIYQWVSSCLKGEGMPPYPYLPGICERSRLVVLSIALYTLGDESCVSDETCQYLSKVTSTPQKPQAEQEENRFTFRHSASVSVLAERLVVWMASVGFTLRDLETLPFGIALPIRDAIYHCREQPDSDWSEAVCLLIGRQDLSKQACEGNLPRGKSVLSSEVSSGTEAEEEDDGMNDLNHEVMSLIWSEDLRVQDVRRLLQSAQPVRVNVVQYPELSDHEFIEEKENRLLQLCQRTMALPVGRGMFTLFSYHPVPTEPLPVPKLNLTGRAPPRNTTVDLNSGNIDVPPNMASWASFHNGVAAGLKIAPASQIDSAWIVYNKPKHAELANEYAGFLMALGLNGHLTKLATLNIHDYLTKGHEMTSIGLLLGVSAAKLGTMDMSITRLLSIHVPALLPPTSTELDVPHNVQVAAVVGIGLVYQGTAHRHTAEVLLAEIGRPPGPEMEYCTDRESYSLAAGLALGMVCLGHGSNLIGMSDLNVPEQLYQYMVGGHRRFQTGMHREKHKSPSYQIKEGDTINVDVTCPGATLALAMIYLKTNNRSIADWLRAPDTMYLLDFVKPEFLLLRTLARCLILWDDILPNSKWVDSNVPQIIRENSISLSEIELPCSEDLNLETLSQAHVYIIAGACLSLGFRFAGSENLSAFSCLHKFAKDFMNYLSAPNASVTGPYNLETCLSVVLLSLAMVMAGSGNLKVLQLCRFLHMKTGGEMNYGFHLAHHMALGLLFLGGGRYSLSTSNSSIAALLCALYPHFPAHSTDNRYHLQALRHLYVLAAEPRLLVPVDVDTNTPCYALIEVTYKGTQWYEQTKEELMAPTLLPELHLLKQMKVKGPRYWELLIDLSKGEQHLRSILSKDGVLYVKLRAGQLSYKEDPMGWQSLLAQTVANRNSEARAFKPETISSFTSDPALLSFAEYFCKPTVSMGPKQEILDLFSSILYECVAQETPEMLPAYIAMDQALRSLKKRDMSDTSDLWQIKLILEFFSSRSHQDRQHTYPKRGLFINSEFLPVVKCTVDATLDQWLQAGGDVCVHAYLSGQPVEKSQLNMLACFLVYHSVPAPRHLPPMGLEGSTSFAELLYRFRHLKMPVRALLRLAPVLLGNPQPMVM
# UniProt Q8BTZ4: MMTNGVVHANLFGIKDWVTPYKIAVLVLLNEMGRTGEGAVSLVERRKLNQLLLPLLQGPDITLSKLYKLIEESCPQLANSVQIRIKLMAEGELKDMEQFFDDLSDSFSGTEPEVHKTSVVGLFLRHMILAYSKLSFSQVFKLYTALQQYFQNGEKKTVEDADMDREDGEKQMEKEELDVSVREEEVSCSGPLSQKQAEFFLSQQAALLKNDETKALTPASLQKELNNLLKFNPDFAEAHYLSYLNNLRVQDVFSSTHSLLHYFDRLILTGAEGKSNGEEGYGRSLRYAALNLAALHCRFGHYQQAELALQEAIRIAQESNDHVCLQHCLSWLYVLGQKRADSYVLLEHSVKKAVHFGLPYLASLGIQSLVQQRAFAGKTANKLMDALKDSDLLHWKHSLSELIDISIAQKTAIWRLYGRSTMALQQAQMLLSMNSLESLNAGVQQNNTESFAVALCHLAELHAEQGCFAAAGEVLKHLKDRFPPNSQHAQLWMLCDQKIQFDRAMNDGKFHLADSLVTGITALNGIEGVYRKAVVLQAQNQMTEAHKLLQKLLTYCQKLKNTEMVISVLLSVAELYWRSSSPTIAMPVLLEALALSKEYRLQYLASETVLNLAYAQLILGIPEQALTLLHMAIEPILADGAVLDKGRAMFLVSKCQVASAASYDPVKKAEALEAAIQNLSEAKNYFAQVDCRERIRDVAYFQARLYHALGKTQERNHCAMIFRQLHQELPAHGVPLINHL
# These are yes or no findings as the source states them, for the method shown. In cells and extracts the contact can be indirect. Here binding means that the protein was enriched with, or labelled near, the bait; the list need not be complete. Where a sequence is shown, tags or fusion partners need not be part of it.
# T1: biotin-tagged XAB2 (XPA-binding protein 2) from aviXab2+/+;birA knock-in mice (mouse) (UniProt Q9DCD2)
# T1 sequence (chain, biotin on the 15aa Avitag (added in vivo by the BirA ligase)): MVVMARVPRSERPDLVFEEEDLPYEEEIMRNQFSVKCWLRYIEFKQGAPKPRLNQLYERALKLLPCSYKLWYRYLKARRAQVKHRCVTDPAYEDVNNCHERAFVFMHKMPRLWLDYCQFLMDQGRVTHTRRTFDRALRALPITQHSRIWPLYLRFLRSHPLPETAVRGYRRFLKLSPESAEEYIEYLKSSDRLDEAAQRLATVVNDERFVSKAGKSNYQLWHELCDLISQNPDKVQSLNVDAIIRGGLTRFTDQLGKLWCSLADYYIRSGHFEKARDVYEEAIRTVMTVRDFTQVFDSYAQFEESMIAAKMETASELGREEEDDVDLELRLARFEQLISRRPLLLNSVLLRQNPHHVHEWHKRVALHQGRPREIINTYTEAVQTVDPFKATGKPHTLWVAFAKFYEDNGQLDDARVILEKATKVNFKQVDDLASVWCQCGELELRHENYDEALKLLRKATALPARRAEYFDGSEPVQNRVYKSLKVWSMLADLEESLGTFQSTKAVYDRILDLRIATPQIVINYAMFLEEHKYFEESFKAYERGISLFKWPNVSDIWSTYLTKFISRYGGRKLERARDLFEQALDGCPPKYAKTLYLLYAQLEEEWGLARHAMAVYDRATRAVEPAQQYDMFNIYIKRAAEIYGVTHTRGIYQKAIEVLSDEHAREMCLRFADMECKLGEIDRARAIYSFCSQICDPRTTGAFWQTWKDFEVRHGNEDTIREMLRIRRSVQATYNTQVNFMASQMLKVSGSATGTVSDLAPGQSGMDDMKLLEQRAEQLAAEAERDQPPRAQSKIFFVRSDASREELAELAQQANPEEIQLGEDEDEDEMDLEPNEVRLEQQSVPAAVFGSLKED
# Target: T1, biotin-tagged XAB2 (XPA-binding protein 2) from aviXab2+/+;birA knock-in mice (mouse)
# Experiment: affinity purification with mass spectrometry; bXAB2 captured on M-280 streptavidin beads from high-salt nuclear extracts of P15 bXAB2 livers treated with benzonase and RNase A; BirA livers as control; three biological replicates, nLC-MS/MS
row,Molecule,binding
1,ANAPC 4 (from UniProt Q91W96 1-807),binds
2,BMS1 (from UniProt Q6PGF5 1-1284),binds
3,CDC27 (from UniProt A2A6Q5 1-825),binds
4,SMC3 (from UniProt Q9CW03 1-1217),binds
5,ANAPC 2 (from UniProt Q8BZQ7 1-837),binds
6,pre-mRNA-processing factor 19 (PRP19) (from UniProt Q99KP6 1-504),binds
7,"NUP50 (protein, UniProt Q9JIH2 1-466) MAKRVAEKELTDRNWDEEDEVEEMGTFSVASEEVMKNRAVKKAKRRNVGFESDSGGAFKGFKGLVVPSGGGGFSGFGGSGGKPLEGLTNGNSTDNATPFSNVKTAAEPKAAFGSFAVNGPTTLVDKKISSPKCNNSNQPPSSGPASSTACPGNAYHKQLAGLNCSVRDWIVKHVNTNPLCDLTPIFKDYERYLATIEKQLENGGGSSSESQTDRATAGMEPPSLFGSTKLQQESPFSFHGNKAEDTSEKVEFTAEKKSDAAQGATSASFSFGKKIESSALGSLSSGSLTGFSFSAGSSSLFGKDAAQSKAASSLFSAKASESPAGGGSSECRDGEEEENDEPPKVVVTEVKEEDAFYSKKCKLFYKKDNEFKEKGVGTLHLKPTATQKTQLLVRADTNLGNILLNVLIAPNMPCTRTGKNNVLIVCVPNPPLDEKQPTLPATMLIRVKTSEDADELHKILLEKKDA",binds
8,"Aquarius (AQR) (protein, UniProt Q8CFQ3 1-1481) MAAPAQPKKIVAPTVSQINAEFVTQLACKYWAPHIKKKSPFDIKVIEEIYEKEIVKSRFAIRKIMLLEFSQYLENYLWMNYSPEVSSKAYLMSICCMVNEKFRENVPAWETFKKKPDHFPFFFKCILKAALAETDGEFSLHEQTLLLLFLDHCFNSLEVDLIRSQVQQLISLPMWMGLQPARLELELKKTPKLRKFWNLIKKNDEKMDPEAREQAYQERRFLSRLIQKFISVLKSIPLSEPVTMDKVHYCERFIELMIDLEALLPTRRWFNTILDDSHLLVHCYLSSLVHREEDGHLFSQLLDMLKFYTGFEINDQTGNALTENEMTTIHYDRITSLQRAAFAHFPELYDFALSNVAEVDARDSLVKFFGPLSSNTLHQVASYLCLLPTLPKNEDTTFDKEFLLELLVSRHERRISQIQQLNQMPLYPTEKIIWDENIVPTEYYSGEGCLALPKLNLQFLTLHDYLLRNFNLFRLESTYEIRQDIEDSVSRMKPWQSEYGGVVFGGWARMAQPIVAFTVVEVAKPNIGENWPTRVRADVTINLNVRDHIKDEWEGLRKHDVCFLITVRPTKPYGTKFDRRRPFIEQVGLVYVRGCEIQGMLDDKGRVIEDGPEPRPNLRGESRTFRVFLDPNQYQQDMTNTIQNGAEDVYDTFNVIMRRKPKENNFKAVLETIRNLMNTDCVVPDWLHDIILGYGDPSSAHYSKMPNQIATLDFNDTFLSIEHLKASFPGHNVKVTVSDPALQIPPFRITFPVRSGKGKKRKDADGEEDDTEEAKTLIVEPHVIPNRGPYPYNQPKRNTIQFTHTQIEAIRAGMQPGLTMVVGPPGTGKTDVAVQIISNIYHNFPEQRTLIVTHSNQALNQLFEKIMALDIDERHLLRLGHGEEELETEKDFSRYGRVNYVLARRIELLEEVKRLQKSLGVPGDASYTCETAGYFFLYQVMSRWEEYMSRVKNSGTACPDAAPDAAQVATFFPFHEYFANAPQPIFKGRSYEEDMEIAEGCFRHIKKIFTQLEEFRASELLRSGLDRSKYLLVKEAKIIAMTCTHAALKRHDLVKLGFKYDNILMEEAAQILEIETFIPLLLQNPQDGFSRLKRWIMIGDHHQLPPVIKNMAFQKYSNMEQSLFTRFVRVGVPTVDLDAQGRARASLCNLYNWRYKNLGNLPHVQLLPEFSTANAGLLYDFQLINVEDFQGVGESEPNPYFYQNLGEAEYVVALFMYMCLLGYPADKISILTTYNGQKHLIRDIINRRCGNNPLIGRPNKVTTVDRFQGQQNDYILLSLVRTRAVGHLRDVRRLVVAMSRARLGLYIFARVSLFQNCFELTPAFSQLTARPLHLHIIPTEPFPTSRKNGERPPHEVQVIKNMPQMANFVYNMYMHLIQTTHHYHQTFLQLPPAMVEEGEEGQSQETEMEAEEETVSAQGNLTPSPADASLSQETPAAQPDCSSQTEDTSAPCDIATAAEPVSAAAEAATPQDAESVPTETE",binds
9,"SMC1a (protein, UniProt Q9CU62 1-1233) MGFLKLIEIENFKSYKGRQIIGPFQRFTAIIGPNGSGKSNLMDAISFVLGEKTSNLRVKTLRDLIHGAPVGKPAANRAFVSMVYSEEGAEDRTFARVIVGGSSEYKINNKVVQLHEYSEELEKLGILIKARNFLVFQGAVESIAMKNPKERTALFEEISRSGELAQEYDKRKKEMVKAEEDTQFNYHRKKNIAAERKEAKQEKEEADRYQRLKDEVVRAQVQLQLFKLYHNEVEIEKLNKELASKNKEIEKDKKRMDKVEDELKEKKKELGKMMREQQQIEKEIKEKDSELNQKRPQYIKAKENTSHKIKKLEAAKKSLQNAQKHYKKRKGDMDELEKEMLSVEKARQEFEERMEEESQSQGRDLTLEENQVKKYHRLKEEASKRAATLAQELEKFNRDQKADQDRLDLEERKKVETEAKIKQKLREIEENQKRIEKLEEYITTSKQSLEEQKKLEGELTEEVEMAKRRIDEINKELNQVMEQLGDARIDRQESSRQQRKAEIMESIKRLYPGSVYGRLIDLCQPTQKKYQIAVTKVLGKNMDAIIVDSEKTGRDCIQYIKEQRGEPETFLPLDYLEVKPTDEKLRELKGAKLVIDVIRYEPPHIKKALQYACGNALVCDNVEDARRIAFGGHQRHKTVALDGTLFQKSGVISGGASDLKAKARRWDEKAVDKLKEKKERLTEELKEQMKAKRKEAELRQVQSQAHGLQMRLKYSQSDLEQTKTRHLALNLQEKSKLESELANFGPRINDIKRIIQSREREMKDLKEKMNQVEDEVFEEFCREIGVRNIREFEEEKVKRQNEIAKKRLEFENQKTRLGIQLDFEKNQLKEDQDKVHMWEQTVKKDENEIEKLKKEEQRHMKIIDETMAQLQDLKNQHLAKKSEVNDKNHEMEEIRKKLGGANKEMTHLQKEVTAIETKLEQKRSDRHNLLQACKMQDIKLPLSKGTMDDISQEEGSSQGEESVSGSQRTSSIYAREALIEIDYGDLCEDLKDAQAEEEIKQEMNTLQQKLNEQQSVLQRIAAPNMKAMEKLESVRDKFQETSDEFEAARKRAKKAKQAFEQIKKERFDRFNACFESVATNIDEIYKALSRNSSAQAFLGPENPEEPYLDGINYNCVAPGKRFRPMDNLSGGEKTVAALALLFAIHSYKPAPFFVLDEIDAALDNTNIGKVANYIKEQSTCNFQAIVISLKEEFYTKAESLIGVYPEQGDCVISKVLTFDLTKYPDANPNPNEQ",binds
10,"RAD21 (protein, UniProt Q61550 1-635) MFYAHFVLSKRGPLAKIWLAAHWDKKLTKAHVFECNLESSVESIISPKVKMALRTSGHLLLGVVRIYHRKAKYLLADCNEAFIKIKMAFRPGVVDLPEENREAAYNAITLPEEFHDFDQPLPDLDDIDVAQQFSLNQSRVEEITMREEVGNISILQENDFGDFGMDDREIMREGSAFEDDDMLVSTSASNLLLEPEQSTSNLNEKMNHLEYEDQYKDDNFGEGNDGGILDDKLISNNDGGIFDDPPALSEAGVMLPEQPAHDDMDEDDNGSLGGPDSPDSVDPVEPMPTMTDQTTLVPNEEEAFALEPIDITVKETKAKRKRKLIVDSVKELDSKTIRAQLSDYSDIVTTLDLAPPTKKLMMWKETGGVEKLFFLPAQPLWNNRLLKLFTRCLTPLVPEDLRKRRKGGEADNLDEFLKEFENPEVPREEQQPQQQQPQPQRDVIDEPIIEEPSRLQDSVMEASRTTIEESAMPPPPPQGVKRKAGQIDPEPSIPPQQVEQMEIPPVELPPEEPPNICQLIPELELLPEKEKEKEKEKEEEEEEEDEDASGGDQDQEERRWNKRTQQMLHGLQRALAKTGAESISLLELCRNTNRKQAAAKFYSFLVLKKQQAIELTQEEPYSDIIATPGPRFHII",binds

# Other lines, results leading:
row,binding,Molecule
1,binds,ANAPC 7 (from UniProt Q9WVM3 1-565)
2,binds,NUP210 (from UniProt Q9QY81 27-1886)
3,binds,NUP205 (mouse (endogenous in P15 liver))
4,binds,WDR36 (mouse (endogenous in P15 liver))
5,binds,MDN1 (mouse (endogenous in P15 liver))
6,binds,FZR1 (from UniProt Q9R1K5 1-493)
7,binds,ANAPC1 (from UniProt P53995 1-1944)
8,binds,CDC23 (from UniProt Q8BGZ4 1-597)
9,binds,ANAPC 5 (from UniProt Q8BTZ4 1-740)
10,binds,"BCAS2 (protein, UniProt Q9D287 1-225) MAGTGLVAGEVVVDALPYFDQGYEAPGVREAAAALVEEETRRYRPTKNYLSYLTAPDYSAFETDIMRNEFERLAARQPIELLSMKRYELPAPSSGQKNDITAWQECVNNSMAQLEHQAVRIENLELMSQHGCNAWKVYNENLVHMIEHAQKELQKLRKHIQDLNWQRKNMQLTAGSKLREMESNWVSLVSKNYEIERTIVQLENEIYQIKQQHGEANKENIRQDF"
11,binds,"NUPl2 (protein, UniProt Q8CIC2 1-420) MTICQFFLQGRCRFGDRCWNEHPGARGAGGARQPPPQQQPPSGNNRRGWNASSQRYSNVIQPSSFPKSTPWGGSRDQDKPPFGSFDSGASTSRGFGSSQNPFASPLSDEQKDEKKLLEGIVKDVEVWESSGQWMFSVYSPVRKKPNISGFTDISPEELRLEYHNFLTSNNLQSYLNSVQQLVSQWRNRINELKNLTMSTKGALLSDVKDGVSQAVPAFGFGSKQAGSFGSPGFPVNNSSSSTVQNFSFKTSPGLATPPSGSTSVFGSHPAFGAGPSAGSSISSSTPAFGLGKPEATSAASFSFKSPEASSFASPGFSGFPASMAASPSGSTTAPPLRSGSSVVGFGSPSPHSQAVFAKPSTDVFGGSGISTSVLASGAADNALFTPRDQLMKEELEQFQSQRFTLGKIPLKPPPVELLTV"
